Test results: article doi:10.1101/423293
Results are given in words; binding and its absence hold for the method and conditions named. Some results given as binding are weak or reduced against the parent protein; the word gives no strength.

Target: T1, HORMAD1 (mouse) (UniProt Q9D5T7)
T1 sequence: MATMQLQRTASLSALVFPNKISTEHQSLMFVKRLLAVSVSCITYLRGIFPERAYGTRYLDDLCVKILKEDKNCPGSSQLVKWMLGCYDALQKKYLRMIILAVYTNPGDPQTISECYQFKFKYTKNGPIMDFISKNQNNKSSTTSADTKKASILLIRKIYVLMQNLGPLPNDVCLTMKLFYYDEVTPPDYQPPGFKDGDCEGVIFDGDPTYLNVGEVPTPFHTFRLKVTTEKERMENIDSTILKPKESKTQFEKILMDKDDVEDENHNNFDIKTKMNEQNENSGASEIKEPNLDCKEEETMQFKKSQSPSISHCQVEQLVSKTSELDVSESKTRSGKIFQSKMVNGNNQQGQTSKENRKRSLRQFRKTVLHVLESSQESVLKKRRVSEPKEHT
Assay: two-hybrid

B1: IHO1 (protein, UniProt Q6PDM4 1-574)
chain: MNFNVWNVKEMLSIPSGSGITKPSNWNNNQTDCSLSDSQFLFGSQFCPENSETLLPSLDAGACLRHPKQTQQNSVDSEPSIFIKYQAKPQLLGGDTKDESLFSLPLPVGKSKGLSKQFEEKKRRATDQSDSETLHSFVSHFPEVINKLQTSVEKTEENLSSRSQSILDSVETIAKTFQETARVQHDLMVESVRDKGSMEQAILEIQRTCAARQAEFMEMKSTLKNLEVLVVEQTKNLQQFCDNLSQLIVPGILEELKKFTSVPQVAGHLKDSTSQTSPSLTQSLHFTRQEKHPSEEPATWQAQEAPAGNPSTSSQRPGECGVWDEGAESGVFQKAALPTDGLHRGDGHVKNKTVPTYCKNWVMTTRSVSNHFSNLPSQRAGNGQGLMAQGASQRDVSKFEARVKNACPEYGPQSMCSFDSLEQSATEQKGRPCRKRRRGKKQQPQRSKRGGLLDRKQGQTSKAACAFIARHHCPQSPVCDPQGPLICWLTPRSSTKSTCHILGGTGETSQTARAAQGNLVQHSQRSSTDSSSQGDQQINWFSDLSLENLEPPQCKKGGTNLLCDPDFDSSDDNF
For B1, the binding was “binds”.
